Values quoted from earlier work, collected in patent publication US6982157B1, “Drug combinations comprising (E)-7-[4-(4-fluorophenyl)-6-isopropyl-2-[methylsulfonyl)amino] pyrimidin-5-yl] (3r,5s) -3,5-dihydroxyhept-6-enoic acid and an inhibitor, inducer or substrate of p450 isoenzyme 3A4” (AstraZeneca AB, priority 1999, dated 2006).

Test system: cytochrome P450 enzymes, in particular 3A4
Details: cited from earlier work

Compound: CC(C)c1c(C(=O)Nc2ccccc2)c(-c2ccccc2)c(-c2ccc(F)cc2)n1CC[C@@H](O)C[C@@H](O)CC(=O)O [atorvastatin]
- metabolism by cytochrome P450 enzymes, in particular 3A4: is metabolised
